{"source": "PubChem BioAssay AID1259405 (NCATS, 2018)", "screen": "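Knock-downs that lift recombinant protein yield in hamster ovary cells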 (primary screen)", "cell system": "Chinese hamster CHO-K1 ovary cells with stable secreted eGFP expression", "knock-down reagent": "single siRNA against mouse genes, 0.8 pmol siRNA per well (2 µl of 400 nM stock)", "time to read-out": "3 days", "detection": "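Per-well intracellular GFP measured by laser scanning cytometry, plus viability from ATP luminescence, each relative to plate median of non-targeting control wells, in %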", "scale": "GFP, % of control: higher = more GFP per well, higher productivity; viability (ATP), % of control: higher = more viable cells (more ATP)", "rule for the call": "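a knock-down is called active if GFP reaches 120% or more of non-targeting control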", "note": "The deposit covers about 50,000 reagents; shown is a random part of them. About 4,000 of them (8%) count as active. 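Mouse siRNA library applied to hamster cells; one well for each siRNA.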 Entries without a mark were called inactive. Reagents against one gene are numbered here."}
{"Target gene": "Drc11l (GeneID 231045)", "reagent no.": 1, "GFP, % of control": 110, "viability (ATP), % of control": 77}
{"Target gene": "Drc11l (GeneID 231045)", "reagent no.": 2, "GFP, % of control": 58.6, "viability (ATP), % of control": 66.1}
{"Target gene": "Drc11l (GeneID 231045)", "reagent no.": 3, "GFP, % of control": 73.3, "viability (ATP), % of control": 86.2}
{"Target gene": "Pla2g2f (GeneID 26971)", "reagent no.": 1, "GFP, % of control": 75.9, "viability (ATP), % of control": 68.6}
{"Target gene": "Pla2g2f (GeneID 26971)", "reagent no.": 2, "GFP, % of control": 67.7, "viability (ATP), % of control": 58.6}
{"Target gene": "Pla2g2f (GeneID 26971)", "reagent no.": 3, "GFP, % of control": 116, "viability (ATP), % of control": 63.6}
{"Target gene": "Cyp11a1 (GeneID 13070)", "reagent no.": 1, "GFP, % of control": 76.4, "viability (ATP), % of control": 55.6}
{"Target gene": "Cyp11a1 (GeneID 13070)", "reagent no.": 2, "GFP, % of control": 79.5, "viability (ATP), % of control": 59.4}
{"Target gene": "Cyp11a1 (GeneID 13070)", "reagent no.": 3, "GFP, % of control": "220 (active)", "viability (ATP), % of control": 72.7}
{"Target gene": "Pkhd1l1 (GeneID 192190)", "reagent no.": 1, "GFP, % of control": 74.9, "viability (ATP), % of control": 59.3}
{"Target gene": "Pkhd1l1 (GeneID 192190)", "reagent no.": 2, "GFP, % of control": 45.6, "viability (ATP), % of control": 40.3}
{"Target gene": "Pkhd1l1 (GeneID 192190)", "reagent no.": 3, "GFP, % of control": 82.1, "viability (ATP), % of control": 61.2}
{"Target gene": "Prss52 (GeneID 73382)", "reagent no.": 1, "GFP, % of control": 85.8, "viability (ATP), % of control": 85.7}
{"Target gene": "Prss52 (GeneID 73382)", "reagent no.": 2, "GFP, % of control": 103, "viability (ATP), % of control": 73}
{"Target gene": "Prss52 (GeneID 73382)", "reagent no.": 3, "GFP, % of control": 80.3, "viability (ATP), % of control": 95.5}
{"Target gene": "Nde1 (GeneID 67203)", "reagent no.": 1, "GFP, % of control": 97.6, "viability (ATP), % of control": 86.9}
{"Target gene": "Nde1 (GeneID 67203)", "reagent no.": 2, "GFP, % of control": "133 (active)", "viability (ATP), % of control": 43.3}
{"Target gene": "Nde1 (GeneID 67203)", "reagent no.": 3, "GFP, % of control": 93.4, "viability (ATP), % of control": 64.3}

Reagents listed so far with an active call (2):
{"Target gene": "Cyp11a1 (GeneID 13070)", "reagent no.": 3, "GFP, % of control": "220 (active)", "viability (ATP), % of control": 72.7}
{"Target gene": "Nde1 (GeneID 67203)", "reagent no.": 2, "GFP, % of control": "133 (active)", "viability (ATP), % of control": 43.3}

The listing continues.
{"Target gene": "Tmbim1 (GeneID 69660)", "reagent no.": 1, "GFP, % of control": 58.5, "viability (ATP), % of control": 104}
{"Target gene": "Tmbim1 (GeneID 69660)", "reagent no.": 2, "GFP, % of control": 103, "viability (ATP), % of control": 73.2}
{"Target gene": "Tmbim1 (GeneID 69660)", "reagent no.": 3, "GFP, % of control": 62, "viability (ATP), % of control": 70.2}
{"Target gene": "Pdia3 (GeneID 14827)", "reagent no.": 1, "GFP, % of control": "138 (active)", "viability (ATP), % of control": 125}
{"Target gene": "Pdia3 (GeneID 14827)", "reagent no.": 2, "GFP, % of control": 88.1, "viability (ATP), % of control": 74.5}
{"Target gene": "Pdia3 (GeneID 14827)", "reagent no.": 3, "GFP, % of control": 86.6, "viability (ATP), % of control": 99.2}
{"Target gene": "Inpp1 (GeneID 16329)", "reagent no.": 1, "GFP, % of control": 71.9, "viability (ATP), % of control": 40.3}
{"Target gene": "Inpp1 (GeneID 16329)", "reagent no.": 2, "GFP, % of control": 39.9, "viability (ATP), % of control": 75.4}
{"Target gene": "Inpp1 (GeneID 16329)", "reagent no.": 3, "GFP, % of control": 94.4, "viability (ATP), % of control": 80.8}
